Assay: Reactivity with vitamin B6
Details: after 20 hours, PBS, 37° C.; pyridoxal-5′-phosphate 50 μM, compound 0.5 μM

SMILES | pyridoxal-5′-phosphate residual rate [%]
N=C(N)NN [aminoguanidine, reference compound] | 0.2
Cc1ncc2c(c1O)C(c1c(C)nn(-c3ccccc3)c1O)OC2 (centres unmarked) [compound 68, 1-(5-hydroxy-3-methyl-1-phenyl-1H-pyrazol-4-yl)-6-methyl-1,3-dihydro-furo[3,4-c]pyridin-7-ol] | 97
